Measured values from PMC10122647 (Nature Communications, 2022).

System: Rpa3 (Pyrococcus abyssi)
Assay: SPR
Details: 500 nM protein; SPR/BLI: 20 mM Na-HEPES pH 8, 150 mM NaCl, 25 C (+0.05% Tween for SPR; +0.2 mg/mL BSA for BLI); recombinant protein; protein details: TEV-cleavable N-terminal His14; label: 5'-biotin-TEG; single-stranded DNA

“TGCCAAGCTTGCATGCCTGCAGGTCGACTCTA [ssDNA-32mer]”: no binding.

Construct, isoform or probe ends are uncertain for at least one entry. Negatives hold for the conditions tested.
